# According to the supplement of paper PMC7666118:
# By UniProt entry, the sequences of proteins in these tests, tags left out. Where a name states a change or a piece, a line headed by the entry shows the natural chain unless it says otherwise.
# UniProt Q6XZF7: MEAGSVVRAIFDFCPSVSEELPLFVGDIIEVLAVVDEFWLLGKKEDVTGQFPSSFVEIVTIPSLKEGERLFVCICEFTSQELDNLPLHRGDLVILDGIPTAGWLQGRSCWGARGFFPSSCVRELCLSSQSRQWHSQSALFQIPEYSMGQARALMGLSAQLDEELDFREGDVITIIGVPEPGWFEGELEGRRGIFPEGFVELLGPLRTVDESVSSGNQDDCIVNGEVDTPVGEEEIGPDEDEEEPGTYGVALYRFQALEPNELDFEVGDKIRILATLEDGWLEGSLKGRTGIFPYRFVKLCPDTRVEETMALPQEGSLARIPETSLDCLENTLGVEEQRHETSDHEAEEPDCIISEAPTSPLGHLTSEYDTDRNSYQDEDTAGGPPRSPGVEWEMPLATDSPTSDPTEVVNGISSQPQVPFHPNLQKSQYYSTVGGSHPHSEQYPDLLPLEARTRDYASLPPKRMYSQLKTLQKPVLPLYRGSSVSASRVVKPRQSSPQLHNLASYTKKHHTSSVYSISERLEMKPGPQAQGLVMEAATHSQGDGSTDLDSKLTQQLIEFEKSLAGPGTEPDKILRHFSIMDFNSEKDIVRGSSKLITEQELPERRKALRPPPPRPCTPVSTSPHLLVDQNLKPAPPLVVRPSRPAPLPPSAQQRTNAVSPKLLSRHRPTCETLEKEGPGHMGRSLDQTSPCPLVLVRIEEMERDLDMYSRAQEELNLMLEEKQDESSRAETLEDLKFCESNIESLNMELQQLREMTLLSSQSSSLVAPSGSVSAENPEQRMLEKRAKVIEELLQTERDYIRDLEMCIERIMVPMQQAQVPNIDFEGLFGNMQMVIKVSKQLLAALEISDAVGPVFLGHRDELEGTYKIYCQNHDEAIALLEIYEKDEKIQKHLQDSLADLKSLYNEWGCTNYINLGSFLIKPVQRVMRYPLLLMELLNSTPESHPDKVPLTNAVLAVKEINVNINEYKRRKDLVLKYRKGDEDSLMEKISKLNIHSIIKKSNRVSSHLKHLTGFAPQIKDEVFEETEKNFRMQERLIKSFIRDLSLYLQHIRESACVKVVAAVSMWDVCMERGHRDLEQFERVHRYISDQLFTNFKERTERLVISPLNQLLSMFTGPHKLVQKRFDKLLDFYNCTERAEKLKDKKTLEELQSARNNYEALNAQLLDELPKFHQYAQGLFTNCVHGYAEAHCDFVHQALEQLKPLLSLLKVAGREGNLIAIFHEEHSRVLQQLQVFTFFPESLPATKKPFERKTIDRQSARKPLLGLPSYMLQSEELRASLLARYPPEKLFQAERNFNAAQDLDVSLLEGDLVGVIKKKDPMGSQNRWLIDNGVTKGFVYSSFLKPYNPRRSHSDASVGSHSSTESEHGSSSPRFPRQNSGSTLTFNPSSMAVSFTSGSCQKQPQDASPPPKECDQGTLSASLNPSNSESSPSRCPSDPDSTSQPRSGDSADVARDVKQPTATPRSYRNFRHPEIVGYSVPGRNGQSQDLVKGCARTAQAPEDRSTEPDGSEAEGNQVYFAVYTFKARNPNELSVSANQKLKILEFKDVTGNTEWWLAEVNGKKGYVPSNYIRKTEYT
# UniProt O75616: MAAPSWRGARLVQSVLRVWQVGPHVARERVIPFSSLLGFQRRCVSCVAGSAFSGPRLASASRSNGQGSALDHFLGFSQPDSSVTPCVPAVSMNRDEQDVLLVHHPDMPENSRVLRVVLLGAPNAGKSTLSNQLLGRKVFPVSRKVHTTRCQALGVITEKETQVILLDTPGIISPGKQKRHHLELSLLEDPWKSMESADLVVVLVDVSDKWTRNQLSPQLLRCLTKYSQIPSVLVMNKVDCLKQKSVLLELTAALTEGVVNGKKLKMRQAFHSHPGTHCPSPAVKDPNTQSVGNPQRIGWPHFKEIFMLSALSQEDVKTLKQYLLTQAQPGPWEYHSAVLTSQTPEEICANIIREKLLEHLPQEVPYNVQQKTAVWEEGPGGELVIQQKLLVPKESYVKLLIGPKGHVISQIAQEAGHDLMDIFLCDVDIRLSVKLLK
# UniProt Q86YN1: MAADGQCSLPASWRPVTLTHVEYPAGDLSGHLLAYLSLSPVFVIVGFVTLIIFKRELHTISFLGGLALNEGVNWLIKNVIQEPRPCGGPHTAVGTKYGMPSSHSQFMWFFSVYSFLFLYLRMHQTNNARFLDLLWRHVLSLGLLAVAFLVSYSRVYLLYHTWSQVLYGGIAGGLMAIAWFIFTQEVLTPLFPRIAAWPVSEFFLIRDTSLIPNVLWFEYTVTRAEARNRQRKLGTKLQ
# UniProt Q8N8S7: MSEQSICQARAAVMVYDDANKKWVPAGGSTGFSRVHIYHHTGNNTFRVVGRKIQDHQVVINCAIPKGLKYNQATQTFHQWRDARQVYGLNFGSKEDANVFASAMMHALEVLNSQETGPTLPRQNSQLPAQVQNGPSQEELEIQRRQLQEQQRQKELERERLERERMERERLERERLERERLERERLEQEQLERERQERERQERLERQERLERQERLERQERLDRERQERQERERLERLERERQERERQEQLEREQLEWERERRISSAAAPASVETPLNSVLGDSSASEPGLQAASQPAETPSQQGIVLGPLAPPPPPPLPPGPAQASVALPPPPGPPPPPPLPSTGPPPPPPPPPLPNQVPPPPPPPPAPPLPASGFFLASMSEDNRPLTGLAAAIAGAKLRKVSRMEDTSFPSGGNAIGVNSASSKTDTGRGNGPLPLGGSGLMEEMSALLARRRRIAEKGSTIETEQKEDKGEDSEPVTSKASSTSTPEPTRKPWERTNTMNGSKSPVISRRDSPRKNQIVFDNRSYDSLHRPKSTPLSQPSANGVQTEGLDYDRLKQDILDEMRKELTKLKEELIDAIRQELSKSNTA
# UniProt Q9NPF5, whole entry: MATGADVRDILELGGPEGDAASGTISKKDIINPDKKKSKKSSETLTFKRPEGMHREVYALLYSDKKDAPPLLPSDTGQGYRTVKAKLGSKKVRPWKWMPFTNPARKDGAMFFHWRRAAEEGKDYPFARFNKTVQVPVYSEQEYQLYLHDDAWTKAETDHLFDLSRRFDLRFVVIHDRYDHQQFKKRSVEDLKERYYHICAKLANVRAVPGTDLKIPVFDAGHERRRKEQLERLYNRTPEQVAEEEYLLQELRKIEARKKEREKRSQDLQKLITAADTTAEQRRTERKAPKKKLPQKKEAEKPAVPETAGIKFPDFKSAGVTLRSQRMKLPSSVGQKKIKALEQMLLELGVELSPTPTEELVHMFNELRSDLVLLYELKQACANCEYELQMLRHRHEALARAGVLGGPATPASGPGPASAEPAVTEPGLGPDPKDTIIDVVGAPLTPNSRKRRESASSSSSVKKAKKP
# UniProt O95071: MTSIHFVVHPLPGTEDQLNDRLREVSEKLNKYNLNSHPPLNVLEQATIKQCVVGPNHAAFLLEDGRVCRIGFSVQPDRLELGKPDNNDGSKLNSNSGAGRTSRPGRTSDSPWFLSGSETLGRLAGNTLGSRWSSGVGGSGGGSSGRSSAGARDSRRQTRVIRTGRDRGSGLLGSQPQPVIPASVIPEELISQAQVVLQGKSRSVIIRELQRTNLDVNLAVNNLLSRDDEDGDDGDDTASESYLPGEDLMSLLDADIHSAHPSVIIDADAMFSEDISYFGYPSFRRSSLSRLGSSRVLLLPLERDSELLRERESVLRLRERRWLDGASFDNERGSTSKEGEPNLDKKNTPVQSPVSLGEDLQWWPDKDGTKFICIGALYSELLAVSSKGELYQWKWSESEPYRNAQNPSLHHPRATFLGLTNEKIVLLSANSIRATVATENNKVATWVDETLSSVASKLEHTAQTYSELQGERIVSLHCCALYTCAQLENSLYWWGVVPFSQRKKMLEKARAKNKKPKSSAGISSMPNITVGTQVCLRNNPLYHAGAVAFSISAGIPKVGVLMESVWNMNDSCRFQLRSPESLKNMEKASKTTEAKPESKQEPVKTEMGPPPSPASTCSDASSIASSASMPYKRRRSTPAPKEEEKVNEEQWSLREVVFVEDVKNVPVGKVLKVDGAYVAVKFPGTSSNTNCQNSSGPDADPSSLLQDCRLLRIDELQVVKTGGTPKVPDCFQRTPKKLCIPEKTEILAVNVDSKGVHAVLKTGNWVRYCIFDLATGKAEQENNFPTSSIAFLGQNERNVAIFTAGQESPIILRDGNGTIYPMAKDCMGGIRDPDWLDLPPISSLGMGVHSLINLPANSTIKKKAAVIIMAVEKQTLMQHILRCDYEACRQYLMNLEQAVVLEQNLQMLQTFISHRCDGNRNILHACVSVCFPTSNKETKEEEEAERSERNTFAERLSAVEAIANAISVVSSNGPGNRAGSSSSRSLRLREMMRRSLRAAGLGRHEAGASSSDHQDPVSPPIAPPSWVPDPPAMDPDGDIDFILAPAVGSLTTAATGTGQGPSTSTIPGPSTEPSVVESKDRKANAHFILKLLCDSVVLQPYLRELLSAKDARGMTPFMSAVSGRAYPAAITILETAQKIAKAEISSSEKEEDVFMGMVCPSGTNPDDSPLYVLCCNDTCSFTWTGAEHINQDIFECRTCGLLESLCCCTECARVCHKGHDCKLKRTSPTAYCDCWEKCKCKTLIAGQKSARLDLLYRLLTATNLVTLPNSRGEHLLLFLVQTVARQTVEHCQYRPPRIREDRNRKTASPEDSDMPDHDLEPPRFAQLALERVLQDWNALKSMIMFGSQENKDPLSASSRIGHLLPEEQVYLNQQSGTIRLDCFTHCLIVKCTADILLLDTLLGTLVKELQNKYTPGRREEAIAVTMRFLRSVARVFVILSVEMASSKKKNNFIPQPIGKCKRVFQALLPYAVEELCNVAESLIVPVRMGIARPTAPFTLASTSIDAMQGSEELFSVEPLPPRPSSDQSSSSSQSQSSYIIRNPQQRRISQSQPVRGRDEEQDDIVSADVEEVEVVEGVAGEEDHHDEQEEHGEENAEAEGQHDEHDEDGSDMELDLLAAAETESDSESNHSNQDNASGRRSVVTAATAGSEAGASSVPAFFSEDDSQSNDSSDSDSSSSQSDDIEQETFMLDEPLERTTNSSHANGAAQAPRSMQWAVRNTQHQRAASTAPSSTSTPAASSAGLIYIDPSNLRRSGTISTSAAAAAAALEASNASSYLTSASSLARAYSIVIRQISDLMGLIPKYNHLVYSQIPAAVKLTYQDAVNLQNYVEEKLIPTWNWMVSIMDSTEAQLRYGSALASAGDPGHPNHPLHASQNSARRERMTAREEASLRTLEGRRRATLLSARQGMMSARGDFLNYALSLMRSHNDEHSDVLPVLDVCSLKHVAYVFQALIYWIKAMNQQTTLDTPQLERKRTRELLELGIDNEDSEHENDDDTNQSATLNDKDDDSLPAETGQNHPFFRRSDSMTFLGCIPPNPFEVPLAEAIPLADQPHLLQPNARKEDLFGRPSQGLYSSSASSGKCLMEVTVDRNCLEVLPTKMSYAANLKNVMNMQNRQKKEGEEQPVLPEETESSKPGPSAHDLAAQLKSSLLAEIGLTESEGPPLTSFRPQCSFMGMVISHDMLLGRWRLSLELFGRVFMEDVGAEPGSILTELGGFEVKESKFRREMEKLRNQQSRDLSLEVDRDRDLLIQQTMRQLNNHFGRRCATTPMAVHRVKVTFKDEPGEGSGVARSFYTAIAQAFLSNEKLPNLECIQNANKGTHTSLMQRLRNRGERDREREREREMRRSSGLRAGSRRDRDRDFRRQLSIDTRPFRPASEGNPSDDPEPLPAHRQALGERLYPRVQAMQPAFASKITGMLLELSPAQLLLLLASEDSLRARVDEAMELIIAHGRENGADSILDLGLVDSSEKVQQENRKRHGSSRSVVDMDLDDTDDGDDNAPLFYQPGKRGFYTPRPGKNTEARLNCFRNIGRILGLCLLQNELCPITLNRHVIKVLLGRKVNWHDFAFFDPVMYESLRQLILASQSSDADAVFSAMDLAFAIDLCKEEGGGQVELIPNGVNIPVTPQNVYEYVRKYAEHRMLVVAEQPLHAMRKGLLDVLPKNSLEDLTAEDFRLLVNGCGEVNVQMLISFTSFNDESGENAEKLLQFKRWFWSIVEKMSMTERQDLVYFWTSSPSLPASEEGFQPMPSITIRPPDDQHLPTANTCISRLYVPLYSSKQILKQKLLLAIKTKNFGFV
# UniProt Q15125: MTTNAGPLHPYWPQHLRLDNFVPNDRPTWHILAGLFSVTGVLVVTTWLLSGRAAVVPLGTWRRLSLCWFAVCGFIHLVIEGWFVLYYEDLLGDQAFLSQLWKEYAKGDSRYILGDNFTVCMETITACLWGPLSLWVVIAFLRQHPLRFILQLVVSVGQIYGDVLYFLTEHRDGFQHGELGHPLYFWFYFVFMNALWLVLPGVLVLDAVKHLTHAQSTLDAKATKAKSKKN
# UniProt O60762: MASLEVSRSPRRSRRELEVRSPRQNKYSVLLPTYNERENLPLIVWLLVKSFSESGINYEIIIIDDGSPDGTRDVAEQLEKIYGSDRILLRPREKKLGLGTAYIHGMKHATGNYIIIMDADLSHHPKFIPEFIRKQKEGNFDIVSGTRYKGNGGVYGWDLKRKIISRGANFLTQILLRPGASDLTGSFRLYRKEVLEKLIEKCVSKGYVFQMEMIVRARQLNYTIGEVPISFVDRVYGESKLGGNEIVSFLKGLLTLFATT
# This is one part of the list.
# Compound: COc1ccc(Cn2ccc3ccc(C(=O)NO)cc32)cc1
# Assay: dose-dependent thermal stabilisation call (2D-TPP, DLPTP, 10% FDR) (binary (1 = stabilised)); higher = stabilised by the compound
# Details: system: HL-60 intact cells; concentration range 0.04-10 µM
row,Target,dose-dependent thermal stabilisation call
1,ENOPH1 (UniProt Q9UHY7),inactive: 0
2,DPP7 (UniProt Q9UHL4),inactive: 0
3,ERCC6L (UniProt Q2NKX8),inactive: 0
4,ECHS1 (UniProt P30084),inactive: 0
5,DNMBP (UniProt Q6XZF7),inactive: 0
6,EHBP1 (UniProt Q8NDI1),inactive: 0
7,EEF1B2 (UniProt P24534),inactive: 0
8,DUSP23 (UniProt Q9BVJ7),inactive: 0
9,DNMT1 (UniProt P26358),inactive: 0
10,EEF2K (UniProt O00418),inactive: 0
11,ERAL1 (UniProt O75616),inactive: 0
12,DOLPP1 (UniProt Q86YN1),inactive: 0
13,ENAH (UniProt Q8N8S7),inactive: 0
14,DMAP1 (UniProt Q9NPF5),inactive: 0
15,EDD1 (UniProt O95071),inactive: 0
16,DNAJC5 (UniProt Q9H3Z4),inactive: 0
17,DNAJC16 (UniProt Q9Y2G8),inactive: 0
18,ENTPD5 (UniProt O75356),inactive: 0
19,EBP (UniProt Q15125),inactive: 0
20,ENOSF1 (UniProt Q7L5Y1),active: 1
21,DMXL2 (UniProt Q8TDJ6),inactive: 0
22,DPP9 (UniProt Q86TI2),inactive: 0
23,DPM1 (UniProt O60762),inactive: 0
24,EML3 (UniProt Q32P44),inactive: 0
25,EIF2B2 (UniProt P49770),inactive: 0
26,EIF2AK4 (UniProt Q9P2K8),inactive: 0
27,EI24 (UniProt O14681),inactive: 0

# Five entries from above, bar-delimited.
row | Target | dose-dependent thermal stabilisation call
20 | ENOSF1 (UniProt Q7L5Y1) | active: 1
21 | DMXL2 (UniProt Q8TDJ6) | inactive: 0
22 | DPP9 (UniProt Q86TI2) | inactive: 0
23 | DPM1 (UniProt O60762) | inactive: 0
24 | EML3 (UniProt Q32P44) | inactive: 0
